At least one structure is not confirmed: it was looked up by name or label, or the drawing left a doubt.
Test system: malignant bone marrow or peripheral blood cells from AML patients
Test: Ex vivo drug sensitivity (MTS cell viability, IC50 and AUC) on freshly isolated primary AML patient samples, association with somatic mutations
Assay type: cell-based, human
Settings: 72-hour culture
Method: For Genomics Analysis examples 2-4 below, studies were performed according to published procedures [Tyner, J. W., Tognon, C. E., Bottomly, D. et al. Functional genomic landscape of acute myeloid leukaemia. Nature 562, 526-531 (2018) doi:10.1038/s41586-018-0623-z; Kurtz, S. E., Eide, C. […] PNAS Sep. 5, 2017 114 (36) 7554-7563], which are incorporated by reference in their entirety herein.
All patient samples were analyzed for clinical characteristics and drug sensitivity. AML, CLL, ALL and MDS/MPN and other patient samples were analyzed with respect to expanded, disease-specific panels of clinical, prognostic, genetic, cytogenetic, and surface antigen characteristics obtained from patient electronic medical records. […]
Compound 7 and/or venetoclax were prepared in a well in a seven-point concentration series. […] After 3 d of culture at 37° C. in 5% CO2, MTS reagent (CellTiter96 AQueous One; Promega) was added, optical density was measured at 490 nm, and raw absorbance values were adjusted to a reference blank value and then used to determine cell viability (normalized to untreated control wells).
Normalized viability values at each dose of a seven-point dilution series for Compound 7, venetoclax or combinations of the two compounds were analyzed for each of numerous primary leukemia samples. […]

CCN(CC)CCNC(=O)c1c(C)[nH]c(/C=C2\C(=O)Nc3ccc(F)cc32)c1C [sunitinib, reference compound]
Effectiveness (AUC of drug sensitivity) against ASXL1 mutant cells compared with wild type (ASXL1 mutant vs wild type AML cells, FIG. 5): appear resistant | Effectiveness (AUC of drug sensitivity) against SRSF2 mutant cells compared with wild type (SRSF2 mutant vs wild type AML cells, FIG. 4): appear resistant
